Results of single-concentration screens

Protein sequences, listed by entry. Tags and fused reporters are not part of them. Residues count along the entry.
UniProt A4I591, 1-473: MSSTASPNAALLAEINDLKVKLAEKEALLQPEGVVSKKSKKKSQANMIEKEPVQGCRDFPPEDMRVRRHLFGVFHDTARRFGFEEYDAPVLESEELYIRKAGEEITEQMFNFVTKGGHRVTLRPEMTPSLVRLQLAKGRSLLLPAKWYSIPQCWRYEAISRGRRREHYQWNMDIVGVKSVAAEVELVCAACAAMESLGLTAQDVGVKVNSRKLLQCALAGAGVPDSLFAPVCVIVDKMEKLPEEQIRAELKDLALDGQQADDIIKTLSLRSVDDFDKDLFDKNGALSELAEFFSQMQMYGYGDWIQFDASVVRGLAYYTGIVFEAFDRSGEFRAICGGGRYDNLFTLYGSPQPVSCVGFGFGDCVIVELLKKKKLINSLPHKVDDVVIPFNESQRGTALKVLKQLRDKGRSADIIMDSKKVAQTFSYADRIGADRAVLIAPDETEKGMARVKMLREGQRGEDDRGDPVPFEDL
UniProt P9WNZ1, whole entry: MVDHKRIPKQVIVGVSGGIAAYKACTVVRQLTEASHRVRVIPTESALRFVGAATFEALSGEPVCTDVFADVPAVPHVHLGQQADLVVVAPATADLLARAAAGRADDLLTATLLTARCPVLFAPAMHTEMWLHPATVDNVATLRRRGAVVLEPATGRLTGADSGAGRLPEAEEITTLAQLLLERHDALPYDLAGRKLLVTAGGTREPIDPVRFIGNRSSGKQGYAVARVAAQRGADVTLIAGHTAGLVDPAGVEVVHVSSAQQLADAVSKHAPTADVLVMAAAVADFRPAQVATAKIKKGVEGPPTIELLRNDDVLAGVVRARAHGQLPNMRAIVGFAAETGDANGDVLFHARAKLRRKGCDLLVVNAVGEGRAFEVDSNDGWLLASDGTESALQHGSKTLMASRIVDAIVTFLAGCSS
UniProt P9WFT3, whole entry: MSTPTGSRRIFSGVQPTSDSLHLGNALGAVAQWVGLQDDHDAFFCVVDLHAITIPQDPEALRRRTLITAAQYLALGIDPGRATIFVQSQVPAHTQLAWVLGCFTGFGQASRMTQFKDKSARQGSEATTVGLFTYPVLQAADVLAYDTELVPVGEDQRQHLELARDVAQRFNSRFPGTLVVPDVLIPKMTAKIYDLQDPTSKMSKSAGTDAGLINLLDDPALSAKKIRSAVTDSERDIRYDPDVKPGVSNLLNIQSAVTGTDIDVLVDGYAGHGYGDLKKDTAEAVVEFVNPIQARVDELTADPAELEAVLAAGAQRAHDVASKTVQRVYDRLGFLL

Source: ChEMBL document CHEMBL3988442, “University of Dundee, Small-Polar-MMV Screening Library” (2021).

A: 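Histidine-tRNA ligase, Leishmania infantum (UniProt A4I591). Enzyme assay of histidyl-tRNA synthetase; the read-out is not stated. Tested at 30 µM. The record gives no direction; compounds that gave an IC50 in retests scored well above the rest, so higher reads as stronger inhibition. The assay is labelled LdHisRS but filed under L. infantum. Of about 69,000 compounds tested this way, about 410 (0.6%) reached 50% or more in at least one test.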
B: 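Enzyme assay of CoaBC with a phosphate dye (Biomol Green) read at 650 nm. Target: Coenzyme A biosynthesis protein CoaBC, Mycobacterium tuberculosis (UniProt P9WNZ1). Concentration: 30 µM. Higher reads as stronger inhibition, judged from the few compounds that gave an IC50. Most strong results did not repeat in a second test. About 67,000 compounds were tested under these conditions; 0.06% (about 40) showed 50% or more at least once.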
C: 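Tryptophan-tRNA ligase, Mycobacterium tuberculosis (UniProt P9WFT3). Enzyme assay of tryptophanyl-tRNA synthetase; the read-out is not stated. Tested at 10 µM. Direction is not recorded; retested compounds ran higher, which suggests that high means inhibition. About 65,000 compounds were tested under these conditions; 0.098% (about 64) showed 50% or more at least once.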

The filed quantity is “Percent Effect” (%). How 0% and 100% were set is not recorded. Most values in the screen are low, and negative values occur. This is an unselected part of the compounds tested. Two or more numbers in one place are separate tests of the same structure; such repeats can differ widely.

| # | compound | A | B | C |
|---|---|---|---|---|
| 1 | `CC(=O)NCCC1CCN(c2nc(C(C)(C)C)nc3c2cnn3C)CC1` | 15.05 | -1.229 | 2.436 |
| 2 | `CCC1=N[C@@]2(CC[C@@H]3CN(CC4CC4)C[C@@H]32)C(=O)N1CC` | 5.128 | 5.263 | 0.2766 |
| 3 | `CC(C)(C)S(=O)(=O)c1ccc(N2CCN(c3ccccn3)CC2)nn1` | 12.17 | 13.74 | -2.508 |
| 4 | `COc1ccc(C(CO)NC(=O)Nc2cccc(C#N)c2)cc1` (stereo not shown) | 13.46 | 11.3 | -0.387 |
| 5 | `Cc1ccc(CC(=O)N2CCC(c3nnc4n3CCC4)CC2)cc1` | 12.9 | 2.2 | 0.7048 |
| 6 | `Fc1ccc(C2(NCc3noc(C4CC4)n3)CCC2)cc1` | -10.96 | 0.7968 | 5.062 |
| 7 | `Cc1cc(NCC(=O)N(C)C)c(C(N)=O)cc1F` | 23.94 | 14.65 | 0.4914 |
| 8 | `COc1ccc(OC)c(C(=O)Nc2cccnc2-n2cncn2)c1` | 11.11 | 1.217 | 5.301 |
| 9 | `COCC(C)(O)CNC(=O)COc1ccccc1OC` (stereo not shown) | 19.23 | -3.625 | -4.348 |
| 10 | `CSCC(=O)N1CCCN(Cc2cscn2)CC1` | 12.84 | 0.5115 | -2.496 |
| 11 | `Cc1ncsc1CCC(=O)NCc1csc(N2CCCC2)n1` | 22.39 | 3.614 | 5.369 |
| 12 | `Cc1ccc(CN2CC3(CCN(C(=O)c4cscn4)C3)C2)s1` | 17.14 | -6.667 | 2.056 |
| 13 | `CCn1cnnc1CCNC(=O)c1ccc(F)c(Br)c1` | 10.85 | 3.563 | 0.9031 |
| 14 | `COCCC1(C(=O)O)CCN(c2cc(C)c3ccccc3n2)CC1` | 17.78 | 7.543 | 5.737 |
| 15 | `O=C(NC1(c2cccc(F)c2)CCOCC1)c1ccoc1` | 17.92 | -3.182 | -0.58 |
| 16 | `Cc1cc(NCc2cccc(C#N)c2)ccc1C(N)=O` | 20.88 | -10.61 | 1.078 |
| 17 | `CCC(=O)N1CCC(c2ncc(C(=O)Nc3ccccc3)c(C)n2)C1` (stereo not shown) | 8.392 | -7.264 | -1.11 |
| 18 | `CO[C@H]1CC[C@H]2[C@H]1OCCN2Cc1ccc(F)c(F)c1` | 2.778 | -4.316 | 15.16 |
| 19 | `CS(=O)(=O)CCC(=O)NC1(c2cccc(C(F)(F)F)c2)CCC1` | 15.79 | 2.273 | 0.2101 |
| 20 | `O[C@@H]1CN(Cc2cccc(F)c2)CC[C@H]1NCc1ccccn1` | 9.859 | 0.4932 | 1.055 |
| 21 | `COc1ccc(NC(=O)c2ccccc2NCc2ncnn2C)cc1` | 22.22 | -1.408 | 3.342 |
| 22 | `Cn1ncnc1NS(=O)(=O)c1ccc(F)cc1Cl` | 20 | 21.81 & 3.175 | -2.183 |
| 23 | `COc1ccc(-c2noc([C@@H]3C[C@H](NC(=O)NC(C)C)CN3C)n2)cc1` | 22.97 | 12.58 | 14.95 |
| 24 | `CN(C)C(=O)N1CCN(C(=O)c2cccc(Cl)c2)CC2(CNC(=O)C2)C1` (stereo not shown) | 13.16 | 3.462 | -1.984 |
| 25 | `CN(C)C(=O)c1cccnc1-c1ccc2c(c1)OCCO2` | -1.667 | 9.636 | 0.5942 |
| 26 | `CCN1CC(COC(=O)c2ccc(Br)cc2F)CC1=O` (stereo not shown) | 8.333 | 4.018 | -1.342 |
| 27 | `Cc1ccc(Cc2sc(NC(=O)C(C)S(C)(=O)=O)nc2C)cc1` (stereo not shown) | 11.43 | 14.9 | -0.8396 |
| 28 | `COc1cccc(OCc2cc(C(=O)NC[C@H]3CCCN3)n[nH]2)c1` | 14.42 | -27.85 | 3.033 |
| 29 | `CC(C)C(C(=O)N1CCN(Cc2ccccn2)CC1)n1cncn1` (stereo not shown) | 10.59 | 2.538 | -2.518 |
| 30 | `C=C(C)Cn1c(=O)nc(N)c2c(-c3ccc(OC)cc3)csc21` | 0 | 2.273 | -5.392 |
| 31 | `Cc1csc(N2CCCN(c3cc(C)nc(C)c3C#N)CC2)n1` | 26.13 | 10.12 | -2.089 |
| 32 | `c1cnc(NCc2nnn3c2CN(Cc2cccs2)CCC3)nc1` | 27.16 | 4.738 | 0.8997 |
| 33 | `O=C(c1cc2c([nH]c1=O)CCC2)N1CCCCC1c1cccc(F)c1` (stereo not shown) | 3.03 | -2.621 | -0.4036 |
| 34 | `O=C(CCN1CCOCC1)NC1CCCN(CC2CCCCC2)C1` (stereo not shown) | -1.639 | -10.17 | -1.61 |
| 35 | `Cc1ccc(CC(=O)N2C[C@@H](CN(C)C)[C@@H](CO)C2)cc1C` | 11.48 | -0.7673 | -1.417 |
| 36 | `Cc1cnn(CCCn2c(C)cc(C(F)(F)F)cc2=O)c1` | 12.5 | 2.36 | -6.223 |
| 37 | `Cn1cnc2c1CCN(CCCS(=O)(=O)c1ccccc1)C2` | 12.07 | 2.872 | 1.371 |

Once more, the final 2:

* Cc1cnn(CCCn2c(C)cc(C(F)(F)F)cc2=O)c1 | A: 12.5%; B: 2.36%; C: -6.223%
* Cn1cnc2c1CCN(CCCS(=O)(=O)c1ccccc1)C2 | A: 12.07%; B: 2.872%; C: 1.371%